Source: patent publication US20220074941A1, “HSP90 COMBINATION THERAPY” (Sloan-Kettering Institute for Cancer Research, priority 2011, published 2022)

Experiments:
[1] = test system: Hsp90 complexes in Mia-PaCa-2 cell extract; assay: Nano-LC-MS/MS of PU-beads pull-downs; format: binding, human; settings: protein identified in PU-beads pull-down of Mia-Paca 2 extract; QSTAR-Elite QTof MS
Method in brief: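 They came from PU-bead pull-downs of pre-cleared lysates (control beads, overnight, 4 °C), eluted by boiling in 2% SDS, gel-separated and run by data-dependent nano-ESI QTof MS/MS.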

[2] = test system: Hsp90 complexes in K562 cell extract; assay: Nano-LC-MS/MS of PU-beads pull-downs; format: binding; settings: protein identified in PU-beads pull-down of K562 extract, QSTAR-Elite QTof MS
Method in brief: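 Proteins were identified by data-dependent nano LC-MS/MS (QTof, ESI) and Mascot searching (p<0.05), then reported as spectral counts and coverage via Scaffold. Inputs were PU-bead versus control-bead pull-downs from lysate pre-cleared with control beads overnight at 4 °C, eluted by boiling in 2% SDS.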

Molecule	Number of Assigned Spectra, Mia-Paca 2 [1]	Number of Assigned Spectra, K562 Prep 1 [2]	Number of Assigned Spectra, K562 Prep 2 [2]
RIPK1 (protein, UniProt Q13546 1-671, looked up) Receptor-interacting …: MQPDMSLNVIKMKSSDFLESAELDSGGFGKVSLCFHRTQGLMIMKTVYKGPNCIEHNEALLEEAKMMNRLRHSRVVKLLGVIIEEGKYSLVMEYMEKGNLMHVLKAEMSTPLSVKGRIILEIIEGMCYLHGKGVIHKDLKPENILVDNDFHIKIADLGLASFKMWSKLNNEEHNELREVDGTAKKNGGTLYYMAPEHLNDVNAKPTEKSDVYSFAVVLWAIFANKEPYENAICEQQLIMCIKSGNRPDVDDITEYCPREIISLMKLCWEANPEARPTFPGIEEKFRPFYLSQLEESVEEDVKSLKKEYSNENAVVKRMQSLQLDCVAVPSSRSNSATEQPGSLHSSQGLGMGPVEESWFAPSLEHPQEENEPSLQSKLQDEANYHLYGSRMDRQTKQQPRQNVAYNREEERRRRVSHDPFAQQRPYENFQNTEGKGTAYSSAASHGNAVHQPSGLTSQPQVLYQNNGLYSSHGFGTRPLDPGTAGPRVWYRPIPSHMPSLHNIPVPETNYLGNTPTMPFSSLPPTDESIKYTIYNSTGIQIGAYNYMEIGGTSSSLLDSTNTNFKEEPAAKYQAIFDNTTSLTDKHLDPIRENLGKHWKNCARKLGFTQSQIDEIDHDYERDGLKEKVYQMLQKWVMREGIKGATVGKLAQALHQCSRIDLLSSLIYVSQN	0	2	0
HINT1 (protein, UniProt P49773 2-126, looked up) Adenosine …: ADEIAKAQVARPGGDTIFGKIIRKEIPAKIIFEDDRCLAFHDISPQAPTHFLVIPKKHISQISVAEDDDESLLGHLMIVGKKCAADLGLNKGYRMVVNEGSDGGQSVYHVHLHVLGGRQMHWPPG	9	0	0
GSE1 KIAA0182 (protein, UniProt Q14687 1-1217, looked up) Genetic suppressor element 1: MKGMSHEPKSPSLGMLSTATRTTATVNPLTPSPLNGALVPSGSPATSSALSAQAAPSSSFAAALRKLAKQAEEPRGSSLSSESSPVSSPATNHSSPASTPKRVPMGPIIVPPGGHSVPSTPPVVTIAPTKTVNGVWRSESRQDAGSRSSSGGRERLIVEPPLPQEKAGGPAIPSHLLSTPYPFGLSPSSVVQDSRFPPLNLQRPVHHVVPPSTVTEDYLRSFRPYHTTDDLRMSSLPPLGLDPATAAAYYHPSYLAPHPFPHPAFRMDDSYCLSALRSPFYPIPTPGSLPPLHPSAMHLHLSGVRYPPELSHSSLAALHSERMSGLSAERLQMDEELRREREREREREREREADREREKEREREREKEREQEKEREREKERERELERQREQRAREKELLAAKALEPSFLPVAELHGLRGHATEERGKPSEQLTPTRAEKLKDAGLQAPKPVQHPLHPVPTPHHTVPSLISNHGIFSLPSSSAATALLIQRTNEEEKWLARQRRLRQEKEDRQSQVSEFRQQVLEQHLDMGRPPVPAEAEHRPESTTRPGPNRHEPGGRDPPQHFGGPPPLISPKPQLHAAPTALWNPVSLMDNTLETRRAESHSLHSHPAAFEPSRQAAVPLVKVERVFCPEKAEEGPRKREPAPLDKYQPPPPPPREGGSLEHQPFLPGPGPFLAELEKSTQTILGQQRASLPQAATFGELSGPLKPGSPYRPPVPRAPDPAYIYDEFLQQRRRLVSKLDLEERRRREAQEKGYYYDLDDSYDESDEEEVRAHLRCVAEQPPLKLDTSSEKLEFLQLFGLTTQQQKEELVAQKRRKRRRMLRERSPSPPTIQSKRQTPSPRLALSTRYSPDEMNNSPNFEEKKKFLTIFNLTHISAEKRKDKERLVEMLRAMKQKALSAAVADSLTNSPRDSPAVSLSEPATQQASLDVEKPVGVAASLSDIPKAAEPGKLEQVRPQELSRVQELAPASGEKARLSEAPGGKKSLSMLHYIRGAAPKDIPVPLSHSTNGKSKPWEPFVAEEFAHQFHESVLQSTQKALQKHKGSVAVLSAEQNHKVDTSVHYNIPELQSSSRAPPPQHNGQQEPPTARKGPPTQELDRDSEEEEEEDDEDGEDEEEVPKRKWQGIEAVFEAYQEHIEEQNLERQVLQTQCRRLEARHYSLSLTAEQLSHSVAELRSQKQKMVSERERLQAELDHLRKCLALPAMHWPRGYLKGYPR	0	11	2
PDAP1 (protein, UniProt Q13442 1-181, looked up) 28 kDa heat- and acid-stable …: MPKGGRKGGHKGRARQYTSPEEIDAQLQAEKQKAREEEEQKEGGDGAAGDPKKEKKSLDSDESEDEEDDYQQKRKGVEGLIDIENPNRVAQTTKKVTQLDLDGPKELSRREREEIEKQKAKERYMKMHLAGKTEQAKADLARLAIIRKQREEAARKKEEERKAKDDATLSGKRMQSLSLNK	5	0	0
TBL1XR1 (protein, UniProt Q9BZK7 2-514, looked up) F-box-like/WD …: SISSDEVNFLVYRYLQESGFSHSAFTFGIESHISQSNINGALVPPAALISIIQKGLQYVEAEVSINEDGTLFDGRPIESLSLIDAVMPDVVQTRQQAYRDKLAQQQAAAAAAAAAAASQQGSAKNGENTANGEENGAHTIANNHTDMMEVDGDVEIPPNKAVVLRGHESEVFICAWNPVSDLLASGSGDSTARIWNLSENSTSGSTQLVLRHCIREGGQDVPSNKDVTSLDWNSEGTLLATGSYDGFARIWTKDGNLASTLGQHKGPIFALKWNKKGNFILSAGVDKTTIIWDAHTGEAKQQFPFHSAPALDVDWQSNNTFASCSTDMCIHVCKLGQDRPIKTFQGHTNEVNAIKWDPTGNLLASCSDDMTLKIWSMKQDNCVHDLQAHNKEIYTIKWSPTGPGTNNPNANLMLASASFDSTVRLWDVDRGICIHTLTKHQEPVYSVAFSPDGRYLASGSFDKCVHIWNTQTGALVHSYRGTGGIFEVCWNAAGDKVGASASDGSVCVLDLRK	3	3	12
PRMT3 (protein, UniProt O60678 2-531, looked up) Protein arginine …: CSLASGATGGRGAVENEEDLPELSDSGDEAAWEDEDDADLPHGKQQTPCLFCNRLFTSAEETFSHCKSEHQFNIDSMVHKHGLEFYGYIKLINFIRLKNPTVEYMNSIYNPVPWEKEEYLKPVLEDDLLLQFDVEDLYEPVSVPFSYPNGLSENTSVVEKLKHMEARALSAEAALARAREDLQKMKQFAQDFVMHTDVRTCSSSTSVIADLQEDEDGVYFSSYGHYGIHEEMLKDKIRTESYRDFIYQNPHIFKDKVVLDVGCGTGILSMFAAKAGAKKVLGVDQSEILYQAMDIIRLNKLEDTITLIKGKIEEVHLPVEKVDVIISEWMGYFLLFESMLDSVLYAKNKYLAKGGSVYPDICTISLVAVSDVNKHADRIAFWDDVYGFKMSCMKKAVIPEAVVEVLDPKTLISEPCGIKHIDCHTTSISDLEFSSDFTLKITRTSMCTAIAGYFDIYFEKNCHNRVVFSTGPQSTKTHWKQTVFLLEKPFSVKAGEALKGKVTVHKNKKDPRSLTVTLTLNNSTQTYGLQ	1	6	1
AMBRA1 (protein, UniProt Q9C0C7 1-1298, looked up) Activating molecule in …: MKVVPEKNAVRILWGRERGARAMGAQRLLQELVEDKTRWMKWEGKRVELPDSPRSTFLLAFSPDRTLLASTHVNHNIYITEVKTGKCVHSLIGHRRTPWCVTFHPTISGLIASGCLDGEVRIWDLHGGSESWFTDSNNAIASLAFHPTAQLLLIATANEIHFWDWSRREPFAVVKTASEMERVRLVRFDPLGHYLLTAIVNPSNQQGDDEPEIPIDGTELSHYRQRALLQSQPVRRTPLLHNFLHMLSSRSSGIQVGEQSTVQDSATPSPPPPPPQPSTERPRTSAYIRLRQRVSYPTAECCQHLGILCLCSRCSGTRVPSLLPHQDSVPPASARATTPSFSFVQTEPFHPPEQASSTQQDQGLLNRPSAFSTVQSSTAGNTLRNLSLGPTRRSLGGPLSSHPSRYHREIAPGLTGSEWTRTVLSLNSRSEAESMPPPRTSASSVSLLSVLRQQEGGSQASVYTSATEGRGFPASGLATESDGGNGSSQNNSGSIRHELQCDLRRFFLEYDRLQELDQSLSGEAPQTQQAQEMLNNNIESERPGPSHQPTPHSSENNSNLSRGHLNRCRACHNLLTFNNDTLRWERTTPNYSSGEASSSWQVPSSFESVPSSGSQLPPLERTEGQTPSSSRLELSSSASPQEERTVGVAFNQETGHWERIYTQSSRSGTVSQEALHQDMPEESSEEDSLRRRLLESSLISLSRYDGAGSREHPIYPDPARLSPAAYYAQRMIQYLSRRDSIRQRSMRYQQNRLRSSTSSSSSDNQGPSVEGTDLEFEDFEDNGDRSRHRAPRNARMSAPSLGRFVPRRFLLPEYLPYAGIFHERGQPGLATHSSVNRVLAGAVIGDGQSAVASNIANTTYRLQWWDFTKFDLPEISNASVNVLVQNCKIYNDASCDISADGQLLAAFIPSSQRGFPDEGILAVYSLAPHNLGEMLYTKRFGPNAISVSLSPMGRYVMVGLASRRILLHPSTEHMVAQVFRLQQAHGGETSMRRVFNVLYPMPADQRRHVSINSARWLPEPGLGLAYGTNKGDLVICRPEALNSGVEYYWDQLNETVFTVHSNSRSSERPGTSRATWRTDRDMGLMNAIGLQPRNPATSVTSQGTQTLALQLQNAETQTEREVPEPGTAASGPGEGEGSEYGASGEDALSRIQRLMAEGGMTAVVQREQSTTMASMGGFGNNIIVSHRIHRSSQTGTEPGAAHTSSPQPSTSRGLLPEAGQLAERGLSPRTASWDQPGTPGREPTQPTLPSSSPVPIPVSLPSAEGPTLHCELTNNNHLLDGGSSRGDAAGPRGEPRNR	1	2	2
ATG5 (protein, UniProt Q9H1Y0 1-275, looked up) Autophagy protein 5: MTDDKDVLRDVWFGRIPTCFTLYQDEITEREAEPYYLLLPRVSYLTLVTDKVKKHFQKVMRQEDISEIWFEYEGTPLKWHYPIGLLFDLLASSSALPWNITVHFKSFPEKDLLHCPSKDAIEAHFMSCMKEADALKHKSQVINEMQKKDHKQLWMGLQNDRFDQFWAINRKLMEYPAEENGFRYIPFRIYQTTTERPFIQKLFRPVAADGQLHTLGDLLKEVCPSAIDPEDGEKKNQVMIHGIEPMLETPLQWLSEHLSYPDNFLHISIIPQPTD	0	2	1
